At least one compound was matched to its structure with a doubt left.
Test system: patient-derived GBM cell line 206
Assay: Combination effect of Compound 1 and TMZ on cell survival (fractional product)
Type: cell-based
Settings: cell line 206 (high MGMT mRNA); TMZ 50, 100, and 200 M
Excerpt: TMZ is an alkylating agent that delivers a methyl group to the purine bases of DNA (O^6-guanine; N^7-guanine and N^3-adenine). The cytotoxic lesion, O^6-methylguanine (O^6-MeG), caused by TMZ can be directly removed by methylguanine methyltransferase (MGMT) via direct repair and can also activate mechanisms of mismatch repair (MMR). Futile cycles of MMR lead to the formation of double-stranded DNA breaks and activation of the DNA-PK mediated mechanisms of double-stranded break repair.
Tumorspheres grown under tumorsphere culture conditions were harvested, dissociated into single cells, and plated at 5,000 cells/well in 96-well plates. […] When the value of the column % actual inhibition divided by % inhibition calculated based on summation is >1=synergism, ˜1=summation, <1=antagonism.

**Q.** `Cn1nnc2c(C(N)=O)ncn2c1=O` [TMZ, Temozolomide] was tested. Which “effect on cell survival” value did it give?
**A.** Its value is “minimal inhibitory effect”.

— patent US10183019B2, “Treatment of cancer with dihydropyrazino-pyrazines” (Signal Pharmaceuticals, LLC, priority 2013, dated 2019)
